Literature values as cited in patent publication US7429557B2, “Replacement solvents having improved properties and methods of using the same” (Mainstream Engineering Corporation, priority 2005, dated 2008).
The name of at least one read-out is uncertain. For at least one compound, name, drawing or mass did not settle the structure.

Details: reference values for common compounds / prior art; cited from earlier work

| Structure (SMILES) | solubility parameter |
| --- | --- |
| FCC(F)(F)F [HFC-134a] | 8.067 (cal/cm^3)^1/2 |
| CC(C)=O [acetone] | 9.646 (cal/cm^3)^1/2 |
